Measurements published in US20180015180A1, “SHORT AND D-AMINO ACID-CONTAINING POLYPEPTIDES FOR THERAPEUTIC CONJUGATES AND USES THEREOF” (AngioChem Inc., priority 2010, published 2018).
Not every detail of the peptide structures is certain; ends, links or a residue may be inferred. Some entries repeat one wording, which the source may state once for all of them.

Amino acid sequences for entries named in this document (tags omitted).
UniProt P30989, whole entry: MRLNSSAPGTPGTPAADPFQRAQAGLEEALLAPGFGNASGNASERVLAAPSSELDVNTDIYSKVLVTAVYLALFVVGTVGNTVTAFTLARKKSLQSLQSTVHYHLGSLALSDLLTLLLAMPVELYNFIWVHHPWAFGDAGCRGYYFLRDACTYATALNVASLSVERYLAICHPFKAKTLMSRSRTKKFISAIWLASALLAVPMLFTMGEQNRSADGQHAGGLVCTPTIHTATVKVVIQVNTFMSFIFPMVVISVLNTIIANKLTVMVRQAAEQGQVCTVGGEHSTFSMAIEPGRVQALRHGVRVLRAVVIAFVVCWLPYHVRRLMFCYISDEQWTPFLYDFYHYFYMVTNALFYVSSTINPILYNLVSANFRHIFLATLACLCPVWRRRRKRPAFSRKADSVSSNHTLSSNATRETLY

What follows are compounds tested against T1, neurotensin receptor (Homo sapiens, UniProt P30989) (assay: Competitive binding assay of [3H]-neurotensin using HT29 cells).
T1 construct: endogenous in cells; host or cells: HT29 human colon adenocarcinoma cells

Compound	binding potency in words
N=C(N)NCCC[C@H](NC(=O)[C@@H](N)CCCCN)C(=O)N[C@@H](CC(N)=O)C(=O)N[C@@H](CC(N)=O)C(=O)N[C@@H](Cc1ccccc1)C(=O)N[C@@H](CCCCN)C(=O)N[C@@H](Cc1ccc(O)cc1)C(=O)N[C@@H](CS)C(N)=O [Peptide P6]	more potent than Angiopep-2
C[C@@H](O)[C@H](NC(=O)[C@H](CCCCN)NC(=O)[C@@H](Cc1ccccc1)NC(=O)[C@H](CC(N)=O)NC(=O)[C@H](CC(N)=O)NC(=O)[C@@H](CCCNC(=N)N)NC(=O)[C@H](N)CCCCN)C(=O)N[C@@H](CCC(=O)O)C(=O)N[C@@H](CCC(=O)O)C(=O)N[C@@H](Cc1ccc(O)cc1)C(=O)N[C@@H](CS)C(N)=O [Peptide P5a, D-Lys-D-Arg-Asn-Asn-D-Phe-Lys-Thr-Glu-Glu-Tyr-Cys]	more potent than Angiopep-2
N=C(N)NCCC[C@@H](NC(=O)[C@H](N)CCCCN)C(=O)N[C@@H](CC(N)=O)C(=O)N[C@@H](CC(N)=O)C(=O)N[C@H](Cc1ccccc1)C(=O)N[C@@H](CCCCN)C(=O)N[C@@H](Cc1ccc(O)cc1)C(=O)N[C@@H](CS)C(N)=O [Peptide P6a, D-Lys-D-Arg-Asn-Asn-D-Phe-Lys-Tyr-Cys]	more potent than Angiopep-2
